Earlier results in US20260191766A1, “USE OF CONDITIONED MEDIUM DERIVED FROM CULTIVATION OF MESENCHYMAL STEM CELLS OF THE UMBILICAL CORD FOR INDUCING, STIMULATING AND PROMOTING HAIR GROWTH AND REGENERATION” (CELLRESEARCH CORPORATION PTE. LTD., priority 2022, published 2026).
For at least one compound, name, drawing or mass did not settle the structure.

System: hair loss
Conditions: reported; cited from earlier work

Question: With Nc1cc(N2CCCCC2)nc(N)[n+]1[O-] [Minoxidil] as the compound, how does the “patients in whom effective for treatment of hair loss” value read?
Answer: Its value is 40%.
